Data on 1 substance can be found in publication doi:10.1101/2024.07.12.603302.

Amino acid sequences for entries named in this document (tags omitted). A change or cut given only in a name is not applied to a line headed by its entry.
UniProt P62136: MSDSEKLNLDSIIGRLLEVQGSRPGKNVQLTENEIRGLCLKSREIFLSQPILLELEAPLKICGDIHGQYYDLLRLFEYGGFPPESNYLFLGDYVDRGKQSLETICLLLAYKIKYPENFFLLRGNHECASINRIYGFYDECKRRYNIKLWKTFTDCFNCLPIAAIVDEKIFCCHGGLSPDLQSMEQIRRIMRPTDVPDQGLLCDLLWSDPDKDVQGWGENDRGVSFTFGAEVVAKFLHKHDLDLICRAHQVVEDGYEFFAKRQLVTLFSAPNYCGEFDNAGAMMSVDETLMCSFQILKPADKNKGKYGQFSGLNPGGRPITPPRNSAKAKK
UniProt Q6UXN9: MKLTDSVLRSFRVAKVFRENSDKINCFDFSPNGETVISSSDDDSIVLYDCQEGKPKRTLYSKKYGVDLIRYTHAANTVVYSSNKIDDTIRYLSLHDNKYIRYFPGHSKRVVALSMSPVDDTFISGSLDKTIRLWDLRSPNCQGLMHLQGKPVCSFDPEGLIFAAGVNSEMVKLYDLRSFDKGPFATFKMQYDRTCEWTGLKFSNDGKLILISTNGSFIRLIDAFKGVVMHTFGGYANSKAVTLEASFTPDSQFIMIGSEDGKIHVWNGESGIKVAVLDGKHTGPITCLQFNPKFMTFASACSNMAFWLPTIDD

No constants are given. Whether binding was seen depends on the method and setting. Binding seen in cells or lysates may run through a third protein. Some binding calls cover weakened binding; strength is not graded here.

The assay concerns the target PP1^H66K-PNUTS fusion: Avitag PP1α (1-304, H66K) linked by SGSGS to PNUTS (408-940) (UniProt P62136). In words: co-IP.

As for WDR82 (from UniProt Q6UXN9 1-313), the binding result is given as “binds”.
